Data on 3 molecules can be found in article doi:10.1101/2021.06.01.446532.

Amino acid sequences for entries named in this document (tags omitted).
UniProt Q8CEE6: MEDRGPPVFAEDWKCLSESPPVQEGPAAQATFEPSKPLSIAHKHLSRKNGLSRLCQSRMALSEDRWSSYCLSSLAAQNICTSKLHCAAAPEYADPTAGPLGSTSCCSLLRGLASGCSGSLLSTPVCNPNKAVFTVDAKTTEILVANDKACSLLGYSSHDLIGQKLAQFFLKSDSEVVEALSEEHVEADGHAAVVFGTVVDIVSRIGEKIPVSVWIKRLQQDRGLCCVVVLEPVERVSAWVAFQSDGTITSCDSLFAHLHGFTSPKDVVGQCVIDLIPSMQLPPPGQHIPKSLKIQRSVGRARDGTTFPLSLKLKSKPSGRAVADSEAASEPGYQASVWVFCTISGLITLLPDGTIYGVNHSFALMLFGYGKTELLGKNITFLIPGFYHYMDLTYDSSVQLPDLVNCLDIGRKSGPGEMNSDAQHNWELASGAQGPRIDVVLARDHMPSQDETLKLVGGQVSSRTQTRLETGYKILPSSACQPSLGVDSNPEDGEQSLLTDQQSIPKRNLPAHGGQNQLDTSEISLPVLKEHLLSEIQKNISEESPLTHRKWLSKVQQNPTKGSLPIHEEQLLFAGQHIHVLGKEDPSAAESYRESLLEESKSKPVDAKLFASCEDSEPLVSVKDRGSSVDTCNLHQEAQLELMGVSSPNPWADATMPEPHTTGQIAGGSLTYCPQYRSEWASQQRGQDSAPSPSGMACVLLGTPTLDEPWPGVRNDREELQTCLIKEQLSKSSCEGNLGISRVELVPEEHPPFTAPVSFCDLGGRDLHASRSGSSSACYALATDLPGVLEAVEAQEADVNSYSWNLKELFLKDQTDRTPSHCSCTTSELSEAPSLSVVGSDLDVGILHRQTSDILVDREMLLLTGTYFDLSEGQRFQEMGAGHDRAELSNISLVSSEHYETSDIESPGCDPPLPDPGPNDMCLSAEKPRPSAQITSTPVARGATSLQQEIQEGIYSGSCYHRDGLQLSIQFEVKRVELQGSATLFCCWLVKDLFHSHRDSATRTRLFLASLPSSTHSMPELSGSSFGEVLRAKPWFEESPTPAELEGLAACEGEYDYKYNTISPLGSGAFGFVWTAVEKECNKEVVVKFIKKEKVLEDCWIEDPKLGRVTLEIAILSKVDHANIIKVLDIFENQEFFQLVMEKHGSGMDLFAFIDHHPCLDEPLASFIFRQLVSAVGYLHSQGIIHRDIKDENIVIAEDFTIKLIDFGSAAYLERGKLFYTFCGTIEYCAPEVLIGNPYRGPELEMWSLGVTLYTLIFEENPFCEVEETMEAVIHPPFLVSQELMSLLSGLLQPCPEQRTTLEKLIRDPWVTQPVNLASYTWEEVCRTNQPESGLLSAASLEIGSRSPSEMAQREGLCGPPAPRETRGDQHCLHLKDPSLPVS

Read-outs that look alike come from different tables or passages of the source. Results are given in words; binding and its absence hold for the method and conditions named. In cells and extracts the contact can be indirect. These calls come from enrichment with a bait or labelling near it, and not all partners need be listed.

The target in assay [1] is T1, LRRC23 (mouse (endogenous in testis)) (UniProt O35125).
T1 sequence: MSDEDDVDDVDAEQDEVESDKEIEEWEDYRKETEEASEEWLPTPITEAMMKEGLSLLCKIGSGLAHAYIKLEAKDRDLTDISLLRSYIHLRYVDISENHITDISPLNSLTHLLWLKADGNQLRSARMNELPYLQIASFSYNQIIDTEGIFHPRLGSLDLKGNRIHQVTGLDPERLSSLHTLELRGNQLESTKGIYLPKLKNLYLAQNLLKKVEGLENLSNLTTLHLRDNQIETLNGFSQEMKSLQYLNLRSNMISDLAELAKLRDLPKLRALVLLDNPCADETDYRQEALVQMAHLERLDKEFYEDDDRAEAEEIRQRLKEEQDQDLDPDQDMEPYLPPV
Kind of assay: affinity purification with mass spectrometry.

Assay [2] deals with T1, LRRC23 (mouse (endogenous in testis)). Kind of assay: affinity purification with mass spectrometry. The source holds these as a separate data set.

As for “PAS domain-containing serine/threonine-protein kinase (from UniProt Q8CEE6 1-1383)”, the binding result in assay [1] is given as “binds”.

B1: SDF4 (protein, UniProt Q61112 36-361)
chain: RPANHSSTRERAANREENEIMPPDHLNGVKLEMDGHLNKDFHQEVFLGKDMDGFDEDSEPRRSRRKLMVIFSKVDVNTDRRISAKEMQHWIMEKTAEHFQEAVKENKLHFRAVDPDGDGHVSWDEYKVKFLASKGHNEREIAEAIKNHEELKVDEETQEVLGNLRDRWYQADNPPADLLLTEDEFLSFLHPEHSRGMLKFMVKEIFRDLDQDGDKQLSLPEFISLPVGTVENQQGQDIDDNWVKDRKKEFEELIDSNHDGIVTMEELENYMDPMNEYNALNEAKQMIAIADENQNHHLEPEEILKYSEFFTGSKLMDYARNVHEEF
Turning to B1, in assay [2], the binding result is listed as “binds”.

B2: TDRD1 (protein, UniProt Q99MV1 1-1172)
chain: MMPRNNLEASTCKMAEPFNFEKKESKPPPQDPLRSPVAQHNHPTFRLKSPENGNTKNNFLLCEQNKQYLASQEDSSVVSSNPAVVNGEVGGSKGDRKPPPTGNPVSPLSLGNSSPPNQVKTKPSSNVTPEKSKKSHKLFENALSVNNPALFNSLGPPLRSTTCHRCGLFGSLRCSQCKQTYYCSTACQRRDWSSHSTICRPVQQSLNKLEDNKSPFETKAIEVKSEVDCPPGVTKEITAGAERVMFSDLRSLQLKKTMEIKGTVTEFKHPSNFYIQLYSSEVLENMNQLSTSLKETYANVVPEDGYLPVKGEVCVAKYTVDQTWNRAIVQAVDVLQRKAHVLYIDYGNEEMIPIDSVHPLSRGLDLFPPSAIKCCVSGVIPTAGEWSEGCVAAVKALLFEQFCSVKVMDILEEEVLTCAVDLVLQSSGKQLDHVLVEMGYGVKPGEQSSTEQSVDHSALEDVGRVTVESKIVTDRNALIPKVLTLNVGDEFCGVVAHIQTPEDFFCQQLQSGHKLAELQESLSEYCGHVIPRSDFYPTIGDVCCAQFSEDDQWYRASVLAYASEESVLVGYVDYGNFEILSLKRLCPIIPKLLDLPMQALNCVLAGVKPSLGIWTPEAVCVMKEMVQNRMVTVRVVGMLGTRALVELIDKSVAPHVSASKALIDSGFAIKEKDVADKGSSMHTASVPLAIEGPAEALEWTWVEFTVDETVDVVVCMMYSPGEFYCHFLKDDALEKLDDLNQSLADYCAQKPPNGFKAEIGRPCCAFFSGDGNWYRALVKEILPSGNVKVHFVDYGNVEEVTTDQLQAILPQFLLLPFQGMQCWLVDIQPPNKHWTKEATARFQACVVGLKLQARVVEITANGVGVELTDLSTPYPKIISDVLIREQLVLRCGSPQDSLMSRPANQHKQIDSHRVQASPSAEQWKTMELPVNKTIAANVLEIISPALFYAIPSEMSENQEKLCVLAAELLEHCNAQKGQPAYRPRTGDACCAKYTNDDFWYRAIVLETSESDVKVLYADYGNIETLPLSRVQPIPASHLELPFQIIRCSLEGPMELNGSCSQLVMELLRNAMLNQSVVLSVKAISKNVHAVSVEKCSENGMINIAENLVMCGLAENLTSKRKSASTKEIPHSRDCCCTELQKQIEKHEQILLFLLNNPTNQSKFTEMKKLLRS
Take B2: in assay [2], the binding entry was “binds”.
